# According to PubChem BioAssay AID493014 (National Center for Advancing Translational Sciences (NCATS), 2011):
# The other results are listed elsewhere or left out. Shown are side measurements of this screen, not its main read-out; they come without a call. Most of these compounds were active or inconclusive in the main read-out, so they are no random draw. Potencies come from curve fits of mixed quality, noted in brackets.
# Test: qHTS Assay to Find Inhibitors of Chronic Active B-Cell Receptor Signaling
# Settings: ABC-DLBCL IkBa-CBG/CBR reporter, luminescence ratio (green luciferase fused to IkBa over red control in TMD8 lymphoma cells), 4 h
# Method in brief: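 TMD8 ABC-DLBCL cells carrying doxycycline-inducible green luciferase fused to IkappaBalpha plus unfused red luciferase were exposed to compounds (up to 46 uM) for 4 hrs at 37C. Activity came from the overlap-corrected green/red luminescence ratio.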
# [1] = measured here: CBR red luminescence, cell number
# [2] = measured here: IkBa-CBG green luminescence
Compound,AC50 [1],AC50 [2]
COc1cc(OC)cc(C(=O)NCC(=O)Nc2ccc(-c3ccccc3)cc2)c1,"11.2 µM [rising, partial curve, poor fit]","15.8 µM [falling, partial curve]"
CCC(CO)Oc1cc(NCc2ccccc2C(F)(F)F)c2ncn(C(C)C)c2c1 (stereo not drawn),"0.731 µM [rising, full curve, poor fit]",
CCOC(=O)CNC(=O)CSc1nc(-c2cccc(C)c2)ns1,"35.5 µM [falling, single point]",
Cc1nn(Cc2c(F)c(F)c(F)c(F)c2F)c(C)c1NC(=O)c1c([N+](=O)[O-])cnn1C,"29.1 µM [falling, single point]",
O=C(CN1C(=O)c2ccccc2S1(=O)=O)Nc1ccccc1,"1.78 µM [falling, partial curve]",
COc1ccc(/C=C2\SC(=S)N(CCCCCC(=O)Nc3cc(C)on3)C2=O)cc1OC,"6.31 µM [falling, partial curve]",
Cc1ccc(Sc2c(CO)c(-c3ccccc3)nn2C)cc1,"3.16 µM [rising, single point]","3.98 µM [falling, partial curve]"
Cn1c(SCC(=O)N2CCCCC2)nc2c([nH]c3ccccc32)c1=O,"1.3 µM [falling, full curve]",
CC(=O)C(Sc1nc(N(C)C)nc(N(C)C)n1)C(=O)Nc1ccccc1 (stereo not drawn),"17.8 µM [rising, partial curve, poor fit]",
CCCSc1ccc([C@H]2N[C@@](Cc3ccccc3)(C(=O)OC)[C@H]3C(=O)N(CC)C(=O)[C@@H]23)cc1,"0.58 µM [falling, full curve, poor fit]",
O=C(O)c1nn(CCOc2ccc(Br)cc2)c(=O)c2ccccc12,"1.41 µM [rising, partial curve, poor fit]",
CCc1cc(C(=O)Nc2ccccc2)cs1,"5.8 µM [falling, single point]",
O=C(NC(=S)N1CCN(Cc2ccc3c(c2)OCO3)CC1)c1ccc(Cl)cc1,"20.6 µM [rising, single point]",
Cc1cc(=O)n2[nH]c(-c3ccc(Cl)cc3)cc2n1,"5.8 µM [falling, partial curve]",
COc1ccc(C2(C)NC(=O)N(CC(=O)Nc3ccc(Br)c(C)c3)C2=O)cc1OC (stereo not drawn),"12.6 µM [rising, partial curve]",
Nc1ncnc2c1ncn2C1OC(C(=O)NC2CC2)C(O)C1O (stereo not drawn),"0.0231 µM [rising, full curve, poor fit]","0.146 µM [falling, full curve]"
CC(C)c1ccc(-c2nnn(CCC#N)n2)cc1,"10 µM [rising, partial curve, poor fit]",
O=C(Nc1nccs1)c1cc(-c2ccco2)nc2ccccc12,"1.64 µM [falling, full curve]",
CCCCN(C)C(=O)c1ccc2c(c1)N(Cc1cccc(F)c1)C(=O)c1ccccc1S2,"35.5 µM [falling, single point]",
Oc1cccc(Nc2nc(NCC3CCCO3)c3ccccc3n2)c1 (stereo not drawn),"29.1 µM [falling, single point]",
Cc1cccc(N(C)C(=O)c2cc3c(=O)[nH]c4ccc(C)cc4c3s2)c1,"8.91 µM [rising, partial curve, poor fit]",

Compound,AC50 [1],AC50 [2]
O=C(O)COc1ccc(NC(=O)c2ccc(NC(=O)c3ccco3)cc2)cc1,"35.5 µM [falling, single point]",
O=C(CCC(=O)Nc1ccccc1)NNC(=O)c1ccco1,"0.092 µM [rising, full curve, poor fit]",
CCCCCCC(=O)N(O)C1CC(=O)N(Cc2ccccc2)C1=O (stereo not drawn),"3.55 µM [falling, partial curve, poor fit]",
C=CCn1c(=O)c2c3c(sc2n2c(Nc4ccc(C(=O)OCC)cc4)nnc12)CCCC3,"20.6 µM [falling, partial curve, poor fit]",
CCN(Cc1ccncc1)Cc1c(O)ccc2cc(Br)ccc12,"35.5 µM [falling, single point]",
COc1cccc(N/C(N)=N/c2nc(CSc3ccccn3)cc(=O)[nH]2)c1,"3.98 µM [rising, partial curve, poor fit]","3.98 µM [falling, single point]"
O=C(Nc1ccccc1Oc1cccnc1)C1CCCN(Cc2ccc(F)cc2)C1 (stereo not drawn),"35.5 µM [falling, single point]",
COc1ccc(Nc2cc(C(=O)NCc3cccnc3)c3ccccc3n2)c(OC)c1,"12.6 µM [falling, partial curve, poor fit]",
COc1ccc(/C(O)=C2/C(=O)C(=O)N(CCN(C)C)C2c2ccccn2)cc1OC (stereo not drawn),"18.4 µM [rising, single point]",
O=C(CCCCCn1c(=S)[nH]c2cc3c(cc2c1=O)OCO3)N1CCN(Cc2ccccc2)CC1,"6.51 µM [falling, single point]",
O=S(=O)(N1CCCCC1)N1CCCN(S(=O)(=O)N2CCCCC2)CC1,"14.6 µM [rising, partial curve, poor fit]",
CCOc1cc(CNCCO)cc(Br)c1OCc1ccccc1,"14.1 µM [falling, single point]",
CC1CCN(C(=O)COC(=O)CNC(=O)c2ccccc2F)CC1,"6.51 µM [rising, single point]",
CC(Sc1nnc(Cc2ccccc2)o1)C(=O)Nc1ccccc1[N+](=O)[O-] (stereo not drawn),"29.1 µM [rising, single point]",
CN1CCN(S(=O)(=O)c2cccc(C(=O)Nc3sc4c(c3-c3nc5ccccc5[nH]3)CCCC4)c2)CC1,"5.8 µM [rising, full curve]",
CCCn1nnc(NCc2ccc(OCc3cccs3)c(OC)c2)n1,"5.17 µM [rising, single point]",
O=C(NNC(=O)c1ccccc1O)c1ccc(Cl)c(S(=O)(=O)N2CCc3ccccc32)c1,"29.1 µM [falling, single point]",
COc1ccccc1NS(=O)(=O)c1cc(NC(=O)c2ccc3c(c2)OCCO3)ccc1C,"25.9 µM [falling, partial curve, poor fit]",
O=C(CN1CC(=O)Oc2ccccc21)OCC(=O)c1ccccc1,"8.2 µM [falling, partial curve]",
COc1ccc(C2=NOC(C(=O)NCCCn3ccnc3)C2)cc1 (stereo not drawn),"32.6 µM [rising, single point]",
COc1ccc(N2CCN(Cc3cc(=O)oc4cc(C)c(Cl)cc34)CC2)cc1,"6.51 µM [rising, single point]",

# Quoted at random: five entries already listed, in no set order.
Compound,AC50 [1],AC50 [2]
O=C(CCCCCn1c(=S)[nH]c2cc3c(cc2c1=O)OCO3)N1CCN(Cc2ccccc2)CC1,"6.51 µM [falling, single point]",
CN1CCN(S(=O)(=O)c2cccc(C(=O)Nc3sc4c(c3-c3nc5ccccc5[nH]3)CCCC4)c2)CC1,"5.8 µM [rising, full curve]",
COc1ccc(C2=NOC(C(=O)NCCCn3ccnc3)C2)cc1 (stereo not drawn),"32.6 µM [rising, single point]",
O=C(O)COc1ccc(NC(=O)c2ccc(NC(=O)c3ccco3)cc2)cc1,"35.5 µM [falling, single point]",
C=CCn1c(=O)c2c3c(sc2n2c(Nc4ccc(C(=O)OCC)cc4)nnc12)CCCC3,"20.6 µM [falling, partial curve, poor fit]",

# Further results:

Compound,AC50 [1],AC50 [2]
O=C(N/N=C(\c1ccccc1)c1cccnc1)C(O)(c1ccccc1)c1ccccc1,"14.1 µM [falling, single point]","31.6 µM [rising, partial curve, poor fit]"
CCOc1ccccc1C(=O)N[C@H](C(=O)OCc1cc(=O)oc2cc(C)ccc12)C(C)C,"23.1 µM [falling, single point]",
Oc1ccc2ccccc2c1C=NCc1ccccc1,"35.5 µM [falling, single point]",
O=C(NCC1CCCO1)c1ccc(COc2ccc(Br)cc2)cc1 (stereo not drawn),"5.17 µM [rising, single point]",
C/C(Cn1nnc([N+](=O)[O-])n1)=N\NC(=O)c1ccncc1,"10 µM [falling, single point]",
Fc1ccc(OCc2nc(-c3ccncc3)n[nH]2)cc1,"35.5 µM [falling, single point]",
Cc1ccc2nc(-c3ccc(-c4ccccn4)s3)cn2c1,"10 µM [falling, partial curve, poor fit]",
Cc1ccc(CNC(=O)CCc2nnc3ccc(NCCCN4CCCC4=O)nn23)cc1,"22.4 µM [falling, single point]",
CC(=O)c1ccc(N2CCN(C(=O)c3cccc(Oc4ccccc4)c3)CC2)cc1,"14.1 µM [falling, partial curve, poor fit]",
COc1cccc(CSc2nc3ccncc3[nH]2)c1,"17.8 µM [falling, single point]",
C/C=C/C(=O)OCC(=O)Nc1cc(OC)c([N+](=O)[O-])cc1C,"35.5 µM [falling, partial curve, poor fit]","31.6 µM [rising, partial curve, poor fit]"
O=C(CC1CCCCC1)NCc1ccc(F)cc1,"7.08 µM [rising, partial curve, poor fit]",
Cc1ccc(Oc2ccc3c(c2)C(=O)N(c2ccc(S(=O)(=O)Nc4nccs4)cc2)C3=O)cc1,"14.1 µM [falling, single point]",
Cc1ccccc1NC(=O)COC(=O)c1ccc(S(C)(=O)=O)c([N+](=O)[O-])c1,"6.31 µM [falling, partial curve]","10 µM [rising, partial curve, poor fit]"
COc1ccccc1C(CCN(Cc1cccs1)C(C)=O)c1ccco1 (stereo not drawn),"31.6 µM [falling, single point]",
O=C(CNC(=O)c1cccc(OC(F)F)c1)Nc1ccc(Cl)cc1,"10 µM [falling, single point]",
COC(=O)/C(C#N)=C/c1c(N2CCCCCC2)nc2c(C)cccn2c1=O,"25.1 µM [falling, partial curve, poor fit]",
CC(=O)Nc1ccc2c(c1)N(C(C)=O)c1ccccc1CC2,"5.01 µM [falling, partial curve, poor fit]",
CN1/C(=C\C(=O)c2cccnc2)Sc2ccccc21,"35.5 µM [falling, single point]",
